Experimental data: PMC12205875, “CRY1–GAIP1 complex mediates blue light to hinder the repression of PIF5 on AGL5 to promote carotenoid biosynthesis in mango fruit”
For at least one entry, the source does not settle the construct or the ends of the probe.

System: MiAGL5 (Mangifera indica)
Test: EMSA
Conditions: LightShift Chemiluminescent EMSA kit (Thermo) per manufacturer; pH and temperature not stated; recombinant protein; protein details: GST (pGEX4T); label: 3' biotin

Row | Sequence | binding result
1 | CACTTCTTCACCCAACCAAAAGCTTAATTTTGTTAATGAATACGAATCTTCATACAGCGTAAG (double strand) [ProMiZEP-Probe] | binds
2 | GCTTTTAGCATACAGAAAAGGAACCCAGCTTTGATCAATTGCCTTGGGCC (double strand) [ProMiBCH1-Probe] | binds
